In PMC6743029:
No constants are given. Whether binding was seen depends on the method and setting. In cells and extracts the contact can be indirect. Some entries that bind do so weakly or less than the wild type. For some of these results: Tags and fused reporters may be left off the sequences shown.

By UniProt entry, the sequences of proteins in these tests, tags left out. Residues count along the entry.
UniProt O95832: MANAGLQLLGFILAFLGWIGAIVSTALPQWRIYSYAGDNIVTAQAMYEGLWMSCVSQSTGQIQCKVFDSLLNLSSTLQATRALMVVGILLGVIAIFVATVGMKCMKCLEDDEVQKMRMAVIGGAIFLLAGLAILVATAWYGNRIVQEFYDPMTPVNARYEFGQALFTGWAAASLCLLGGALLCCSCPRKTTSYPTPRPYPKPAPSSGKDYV
UniProt Q9NYU2, residues 43-1555: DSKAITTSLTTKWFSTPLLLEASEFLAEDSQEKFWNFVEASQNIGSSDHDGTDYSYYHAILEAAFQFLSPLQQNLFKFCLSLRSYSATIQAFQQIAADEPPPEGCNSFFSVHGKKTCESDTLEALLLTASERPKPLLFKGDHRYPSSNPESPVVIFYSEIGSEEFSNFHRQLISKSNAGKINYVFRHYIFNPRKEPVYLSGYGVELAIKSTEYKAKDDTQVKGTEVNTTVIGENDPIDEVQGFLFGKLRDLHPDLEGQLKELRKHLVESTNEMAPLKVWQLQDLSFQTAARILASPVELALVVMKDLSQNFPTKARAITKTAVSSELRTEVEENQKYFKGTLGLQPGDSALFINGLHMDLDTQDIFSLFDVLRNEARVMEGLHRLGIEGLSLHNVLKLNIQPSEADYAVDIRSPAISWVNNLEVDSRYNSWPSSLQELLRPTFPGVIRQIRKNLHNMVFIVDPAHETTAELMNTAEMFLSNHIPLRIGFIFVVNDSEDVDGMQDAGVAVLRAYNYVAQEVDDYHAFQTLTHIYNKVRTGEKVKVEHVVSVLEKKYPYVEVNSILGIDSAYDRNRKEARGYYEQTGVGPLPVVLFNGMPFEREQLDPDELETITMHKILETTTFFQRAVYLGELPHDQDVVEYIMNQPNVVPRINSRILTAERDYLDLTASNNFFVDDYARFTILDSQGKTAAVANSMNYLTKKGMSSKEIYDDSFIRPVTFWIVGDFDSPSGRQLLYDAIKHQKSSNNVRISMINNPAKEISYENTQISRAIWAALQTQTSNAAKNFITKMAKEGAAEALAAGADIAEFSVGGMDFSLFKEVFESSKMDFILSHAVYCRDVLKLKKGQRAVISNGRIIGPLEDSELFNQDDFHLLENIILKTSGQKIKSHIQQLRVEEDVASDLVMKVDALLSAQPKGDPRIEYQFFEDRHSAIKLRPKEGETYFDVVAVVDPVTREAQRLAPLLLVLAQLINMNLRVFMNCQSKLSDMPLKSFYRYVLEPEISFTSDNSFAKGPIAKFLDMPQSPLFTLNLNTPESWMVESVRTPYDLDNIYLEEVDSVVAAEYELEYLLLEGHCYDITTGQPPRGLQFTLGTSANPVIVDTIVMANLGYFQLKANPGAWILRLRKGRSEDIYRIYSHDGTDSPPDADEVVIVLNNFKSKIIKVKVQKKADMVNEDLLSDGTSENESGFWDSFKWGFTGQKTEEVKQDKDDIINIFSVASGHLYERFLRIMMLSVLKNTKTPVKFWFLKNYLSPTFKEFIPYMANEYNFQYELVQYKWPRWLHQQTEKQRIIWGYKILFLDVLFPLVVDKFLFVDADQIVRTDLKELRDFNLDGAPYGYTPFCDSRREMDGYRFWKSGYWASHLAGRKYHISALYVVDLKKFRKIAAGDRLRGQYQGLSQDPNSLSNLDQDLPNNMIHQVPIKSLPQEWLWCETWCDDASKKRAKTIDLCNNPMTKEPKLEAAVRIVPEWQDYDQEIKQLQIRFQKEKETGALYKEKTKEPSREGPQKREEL

What was measured:
Assay in all cases: co-IP; 293T cells transfected with a Flag-tagged protein for 48 h; lysis in 1% Triton X-100, 50 mM Tris-HCl pH 7.4, 150 mM NaCl; anti-Flag antibody-coated beads, 1.5 h at 4°C; Western blotting
[1] = biological target: T1, CD81-Flag (UniProt P60033)
T1 sequence: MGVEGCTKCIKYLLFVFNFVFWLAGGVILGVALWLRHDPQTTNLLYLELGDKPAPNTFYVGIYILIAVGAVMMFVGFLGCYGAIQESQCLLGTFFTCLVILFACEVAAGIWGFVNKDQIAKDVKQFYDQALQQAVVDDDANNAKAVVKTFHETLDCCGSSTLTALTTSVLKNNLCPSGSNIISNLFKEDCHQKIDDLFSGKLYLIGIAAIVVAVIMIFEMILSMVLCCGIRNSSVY

[2] = biological target: T2, calnexin-Flag (UniProt P27824)
T2 sequence: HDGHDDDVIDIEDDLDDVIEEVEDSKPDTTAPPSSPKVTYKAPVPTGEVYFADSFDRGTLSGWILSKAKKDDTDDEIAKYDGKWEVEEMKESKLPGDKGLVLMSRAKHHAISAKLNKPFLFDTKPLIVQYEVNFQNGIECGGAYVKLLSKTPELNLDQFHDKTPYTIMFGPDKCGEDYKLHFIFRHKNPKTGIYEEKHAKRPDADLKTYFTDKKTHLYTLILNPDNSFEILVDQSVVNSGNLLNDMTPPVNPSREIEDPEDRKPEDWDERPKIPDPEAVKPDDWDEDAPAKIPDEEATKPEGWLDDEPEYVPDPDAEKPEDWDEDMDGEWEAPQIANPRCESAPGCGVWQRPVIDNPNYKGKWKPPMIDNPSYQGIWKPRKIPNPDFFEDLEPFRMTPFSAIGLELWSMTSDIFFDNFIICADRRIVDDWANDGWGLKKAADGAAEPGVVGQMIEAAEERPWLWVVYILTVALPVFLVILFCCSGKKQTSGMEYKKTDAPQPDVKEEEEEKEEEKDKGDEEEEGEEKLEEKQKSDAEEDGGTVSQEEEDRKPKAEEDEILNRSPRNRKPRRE

[3] = biological target: claudin1-Flag (UniProt O95832)
[4] = biological target: T3, occludin-Flag (UniProt Q16625)
T3 sequence: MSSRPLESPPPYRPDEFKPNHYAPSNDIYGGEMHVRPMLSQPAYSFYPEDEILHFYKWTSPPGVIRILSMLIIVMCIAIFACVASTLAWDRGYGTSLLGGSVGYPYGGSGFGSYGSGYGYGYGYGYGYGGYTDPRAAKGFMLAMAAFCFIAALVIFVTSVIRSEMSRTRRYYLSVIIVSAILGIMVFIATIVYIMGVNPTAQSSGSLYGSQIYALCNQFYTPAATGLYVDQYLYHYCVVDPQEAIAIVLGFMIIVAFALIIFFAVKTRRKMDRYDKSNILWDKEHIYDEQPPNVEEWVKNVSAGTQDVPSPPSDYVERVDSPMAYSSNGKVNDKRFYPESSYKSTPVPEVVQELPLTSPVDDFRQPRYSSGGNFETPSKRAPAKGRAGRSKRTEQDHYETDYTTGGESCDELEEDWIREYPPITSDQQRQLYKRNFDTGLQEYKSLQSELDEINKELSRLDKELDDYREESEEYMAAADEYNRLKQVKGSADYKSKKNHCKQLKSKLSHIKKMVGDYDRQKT

binding [1]: no binding | binding [2]: binds | binding [3]: no binding | binding [4]: no binding
Substance: UDP-glucose:glycoprotein glucosyltransferase 1 (UGGT1), cellular, 293T (from UniProt Q9NYU2 43-1555) (enzyme)
